Source: PubChem BioAssay AID1233 (SRMLSC, 2008)
This is a selection; strong and weak results do not stand in their true shares. Entries with a potency or affinity are not part of this list. Activity calls are given as the source filed them.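 How the source made its calls: active means a dose-response curve fit returns a half-maximal inhibitory concentration, extrapolated values included; inactive means the fit returns no such concentration.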

Target: HMG-CoA reductase [Enterococcus faecalis] (UniProt Q9FD70)
Assay: class II HMG-CoA reductase inhibition potency – biochemical, Enterococcus faecalis, confirmation (AID 1233);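 further: 0% = full reaction carrier wells and 100% = background wells lacking mevalonate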
Details: purified E. faecalis HMGR, NADPH absorbance 340 nm kinetics; at 100 µM (top of the series)

Question: Which inhibition does the source give for `CN(C)CCOC(c1ccccc1)c1ccccc1` here?
Answer: inactive: -3.81%
